# Results from the supplement of paper PMC12889115.
# This is one part of the list. Values are raw readings; no control value is given beside them.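 In the initial screen, polymyxin B was used at a concentration that permeabilizes Salmonella's outer membrane but not its inner membrane. Maximum growth was set by DMSO wells with or without polymyxin B. Since plates varied, data were ranked per plate, and compounds giving the lowest OD600 advanced as hits.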
# System: Salmonella enterica serovar Typhimurium SL1344
# Test: bacterial growth OD600 after 18 h with compound and polymyxin B; higher = more bacterial growth (less inhibition)
# Settings: 50 µM, Mueller-Hinton broth
smiles,measurement,setting,value
COCC(=O)N1CCC(Oc2ccc(C(=O)NCc3cccc(SC)c3)cc2)CC1,bacterial growth OD600,polymyxin B 1 µg/mL,0.779
COCC1CCCCN1C(=O)c1cc(COc2ccc(F)cc2F)[nH]n1 (stereo not given),bacterial growth OD600,polymyxin B 0.75 µg/mL,0.818
Cc1ocnc1C(=O)NCc1cccnc1-n1cnc2ccccc21,bacterial growth OD600,polymyxin B 1 µg/mL,1.01
CN(Cc1cc(-c2ccccc2)[nH]n1)C(=O)Cn1nnnc1CN1CCCCCC1,bacterial growth OD600,polymyxin B 0.75 µg/mL,0.978
Cc1ccc(CC2(CCC(=O)N(CCO)Cc3ccccc3)CCC(=O)N2)cc1 (stereo not given),bacterial growth OD600,polymyxin B 0.75 µg/mL,0.799
COCCN(Cc1nc(NCCc2ccccc2OC)c2ccccc2n1)C(C)C,bacterial growth OD600,polymyxin B 0.75 µg/mL,0.858
CCN(CC)c1ncccc1CNC(=O)Nc1ccc2c(c1)OCO2,bacterial growth OD600,polymyxin B 1 µg/mL,0.845
O=C(NCCc1cccnc1)c1coc(COc2ccc(F)cc2Cl)n1,bacterial growth OD600,polymyxin B 1 µg/mL,0.919
COc1ccc(OC)c(Cc2nnc(CCC(=O)NCc3cc(F)ccc3C)o2)c1,bacterial growth OD600,polymyxin B 1 µg/mL,0.862
C1CCC(Nc2nc3nonc3nc2N2CCCC(CN3CCOCC3)C2)C1 (stereo not given),bacterial growth OD600,polymyxin B 1 µg/mL,0.834
COCCN1C(=O)NC(Cc2ccccc2Cl)(C2CCN(C(=O)/C=C/C(C)C)CC2)C1=O (stereo not given),bacterial growth OD600,polymyxin B 0.75 µg/mL,0.764
O=C(NCC1CC(=O)N(C2CC2)C1)c1cc(Cn2ccc3ccccc32)[nH]n1 (stereo not given),bacterial growth OD600,polymyxin B 0.75 µg/mL,0.781
C[C@@H]1CN(C2(C(=O)NCC(C)(C)CO)Cc3ccccc3C2)C[C@H](C)O1,bacterial growth OD600,polymyxin B 0.75 µg/mL,0.752
CCN(CC)C(=O)C1CCCN(Cc2ccc3c(c2)CN(Cc2ccccc2)CCO3)C1 (stereo not given),bacterial growth OD600,polymyxin B 0.75 µg/mL,0.752
CCC(O)CNC(=O)C1CCN(C2CCN(Cc3ccccc3C)CC2)CC1 (stereo not given),bacterial growth OD600,polymyxin B 1 µg/mL,1.09
Cc1ccc2c(c1)CN(CC(=O)NC(C)C13CC4CC(CC(O)(C4)C1)C3)CC(c1ccsc1)O2 (stereo not given),bacterial growth OD600,polymyxin B 0.75 µg/mL,0.659
CN(CC1COCCO1)C(=O)C1(N2CCCCC2)Cc2ccccc2C1 (stereo not given),bacterial growth OD600,polymyxin B 0.75 µg/mL,0.688
COc1cccc(C(=O)C2CCCN(C3CCN(c4ccc5c(c4)OCO5)CC3)C2)c1 (stereo not given),bacterial growth OD600,polymyxin B 1 µg/mL,1.27
CC(NC(=O)CCc1nnc(Cc2cccc(C(F)(F)F)c2)o1)C1CC1 (stereo not given),bacterial growth OD600,polymyxin B 1 µg/mL,0.816
CCCCNC(=O)c1cc(CN2CCOCC2)on1,bacterial growth OD600,polymyxin B 1 µg/mL,1.26
Cc1cccc(C(=O)N2CCC(CCC(=O)NC3CCN(Cc4ccccc4)C3)CC2)n1 (stereo not given),bacterial growth OD600,polymyxin B 1 µg/mL,0.965
COCCn1cc(C(=O)NCCc2cccc(Cl)c2)c(=O)c(C(=O)N(C)CC(C)C)c1,bacterial growth OD600,polymyxin B 0.75 µg/mL,0.749
C=C(C)CNC(=O)C1CCCN(C2CCN(Cc3ccccc3)CC2)C1 (stereo not given),bacterial growth OD600,polymyxin B 0.75 µg/mL,0.844
COc1ccc(C(=O)N(C)CCCC2CCCC2)cc1OC1CCN(C(C)=O)CC1,bacterial growth OD600,polymyxin B 1 µg/mL,0.884
O=C(c1ccc2nc(Cc3ccccc3F)oc2c1)N1CCCC1c1ccccn1 (stereo not given),bacterial growth OD600,polymyxin B 1 µg/mL,0.87
CCOC(=O)N1CCN(C(=O)c2ccc(N3CCC(NCc4ccc(F)cc4)CC3)cc2)CC1,bacterial growth OD600,polymyxin B 0.75 µg/mL,0.703
COC(=O)c1ccc(CN2CCOc3ccc(C(O)Cc4ccccc4)cc3C2)cc1 (stereo not given),bacterial growth OD600,polymyxin B 0.75 µg/mL,0.09
CC(=O)c1cccc(OCc2cc(C(=O)NCc3ccc4c(c3)OCO4)n[nH]2)c1,bacterial growth OD600,polymyxin B 1 µg/mL,0.869
COC(=O)C1CCCCN1Cc1ccc2c(c1)CN(C(=O)COc1ccccc1OC)CCO2 (stereo not given),bacterial growth OD600,polymyxin B 0.75 µg/mL,0.988
CC(C)c1cc(CNC(=O)c2ccc(OC3CCN(C(=O)C4CC4)CC3)cc2)on1,bacterial growth OD600,polymyxin B 1 µg/mL,0.758

# Quoted at random: 2 entries already listed.
smiles,measurement,setting,value
Cc1cccc(C(=O)N2CCC(CCC(=O)NC3CCN(Cc4ccccc4)C3)CC2)n1 (stereo not given),bacterial growth OD600,polymyxin B 1 µg/mL,0.965
O=C(NCC1CC(=O)N(C2CC2)C1)c1cc(Cn2ccc3ccccc32)[nH]n1 (stereo not given),bacterial growth OD600,polymyxin B 0.75 µg/mL,0.781
